In PMC5683033:
Results are given in words; binding and its absence hold for the method and conditions named.

Molecular target: pteridine glycosyltransferase from Chlorobium tepidum (Chlorobium tepidum)
Test: SEC; Superdex 200, 20 mM Tris-HCl pH 8.0, 150 mM NaCl, 1 mM DTT; size estimated against protein standards; both purified

binding: no binding
B1: pteridine glycosyltransferase from Chlorobium tepidum (enzyme)
chain: GAMKKLRIAQVSPLIESVPPKKYGGTERVVYYLTEGLVERGHEVTLFASGDSATSARLIAPVKESLRLGRKIHSTTIMHMLMLSKVYEEMAGEFDIIHSHLEYLTLPYASCSRTPTVLTMHGRLDLPDYADILKRYSSMAWVSISDSQRAPVPDINWVGTIYHGYPENLFEFNPDPEDYFLYLGRFSEEKRPDEAIRLARACKIHLKLAAKIDTADKAYFKAKVEPLLDSPYIEYVGEVGDSRKGELLRNAKALLNTIDWPEPFGLVMIEALACGTPVIVRRCGSSPEVITHGVTGFICDSQLDFIRAIHNIGTISRIACRREFEQRFTLRHMVDNYETLYRKVIAASSATDSLSSLP
modifications: selenomethionine-substituted (selenomethionine in place of methionine)
